# Plain letter strings leave the end groups untold.
# Assay: general procedure: Fmoc SPOT synthesis; Teflon-patterned paper (SPOT)
# Settings: whole synthesis; for crude LC-MS purity: estimated purity (LC-MS)
Sequence,crude LC-MS purity [%],difficulty met
FHRRIKAGRGDS,22,–
GKKQRFRHRNRK,–,low
GWQPPARARIG,82,–
LTGKNFPMFHRN,31,–
LTTAPKLPKVTR,56,–
MHRMPSFLPTTL,59,–
PQVTRGDVFTMP,18,–
TVKHRPDALHPQ,67,–

# From US20210023523A1 (The Governors of the University of Alberta, priority 2013, published 2021)
